Assay results as given in US5112944A, “Cyclic tetrapeptide and process for preparing the same” (Shionogi & Co., Ltd., priority 1989, dated 1992).
At least one compound was matched to its structure with a doubt left. Where a SMILES comes first, the peptide text is derived from it. [ ]: non-standard residue; d: D form. Aoe = N[C@@H](CCCCCC(=O)[C@@H]1CO1)C(=O)O; dPip = O=C(O)[C@H]1CCCCN1

Tested on: NIH3T3 cells transformed with sis oncogene
Experiment: Detransformation activity (return of transformed cells to normal flat morphology)
Format: cell-based
Details: 24 hours
Description: The employed culture solution was prepared by adding 9.5 g of DALBECCO'S EAGLE MEM medium (made by NISSUI SEIYAKU CO., LTD.) and 20 ml of 7% sodium bicarbonate to 1 l of distilled water and then adding fetal bovine serum (made by Flow Laboratories, Inc., U.S.A.) to be 10% by volume at the final concentration.
To each well of a 12-well plastic dish made by Flow Laboratories, Inc., 2 ml of the above-mentioned culture solution, 2×10^4 cells/ml of NIH3T3 cells transformed with sis oncogene (provided by National Cancer Institute of the U.S.; Science, 218, 1131 (1982)) and each test compound (RF-1023-A or RF-1023-B) in each concentration (5 to 400 ng/ml) were added and cultured at 37° C. in 5% CO2 incubator. Twenty-four hours later the morphology of the cells was observed and detransformation activity (activity for inhibiting transformation of NIH3T3 cells transformed with the oncogene and returning to normal flat morphology of cells) was estimated. Two days after the incubation, cells subjected to the medium containing RF-1023-A were dispersed with 0.05% trypsin, and the cell number was measured by means of hemocytometer.

How did the Detransformation activity (5 ng/ml test compound) turn out when `O=C1N[C@@H](Cc2ccccc2)C(=O)N2CCCC[C@@H]2C(=O)N[C@@H](CCCCCC(=O)[C@@H]2CO2)C(=O)N[C@H]1Cc1ccccc1` [RF-1023-A] (cyclo([Aoe]FF[dPip])) was run?
The Detransformation activity was “+ ("+" means that morphology of cells not less than 75% were flat in the judgment of 24 hours after the incubation)”.

And the Detransformation activity (50 ng/ml test compound)?
The Detransformation activity was “+ ("+" means that morphology of cells not less than 75% were flat in the judgment of 24 hours after the incubation)”.

And the Detransformation activity (100 ng/ml test compound)?
The Detransformation activity was “+ ("+" means that morphology of cells not less than 75% were flat in the judgment of 24 hours after the incubation)”.

What about the Detransformation activity (200 ng/ml test compound) of the same molecule?
The Detransformation activity was “+ ("+" means that morphology of cells not less than 75% were flat in the judgment of 24 hours after the incubation)”.

What about the Detransformation activity (400 ng/ml test compound) of the same molecule?
The Detransformation activity was “+ ("+" means that morphology of cells not less than 75% were flat in the judgment of 24 hours after the incubation)”.
